A short description of this assay: qHTS Assay for Modulators of Lamin A Splicing. As to conditions: HeLa LMNA splicing GFP/RFP minigene ratio, 48 h. The gist of the method: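 S3 HeLa cells stably expressing lamin A-EGFP splicing minigene plus DsRed2, 600 cells/well, 48 h compound exposure at 37C. Laser-scanning cytometry; analysed as GFP (500-530 nm)/RFP (575-640 nm) total intensity ratio; 0.5% DMSO vehicle.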

[1] abbreviates: measured here: RFP viability control channel.
The mark [2] stands for this setting: measured here: GFP splicing reporter channel.

SMILES strings stand for the structures. The list shows a part of the results. These are further read-outs of the screen, such as a control signal, another cell line or another target. No call is given for them. Most of these compounds were active or inconclusive in the main read-out, so they are no random draw. Potencies come from curve fits of mixed quality, noted in brackets.

For orientation: AC50 means the midpoint of the concentration-response curve, whichever way the signal moves.

Regarding `CCC(=O)Oc1c(C(=O)CC)cc2c(C)cc(=O)oc2c1C`, under setting [1], the AC50 was 2.82 µM [rising, single point].

In the case of `COc1ccc(-c2nc3ccccc3nc2-c2ccccc2)cc1`, the half-maximal activity concentration (AC50) was 35.5 µM [falling, single point] under setting [2] and 35.5 µM [falling, single point] under setting [1].

Regarding `Brc1ccc(Oc2ncc(CN3CCN(c4ccccc4)CC3)s2)cc1`, the AC50 under setting [1] was 15.8 µM [rising, single point].

With `CCc1cccc2c(C(=O)COC(=O)/C=C/c3ccc(O)c(OC)c3)c[nH]c12`, the AC50 under setting [1] is 35.5 µM [rising, single point].

As to `Cc1ccc(S(=O)(=O)N2CCCN(S(=O)(=O)c3ccc4ccccc4c3)CC2)cc1`, the AC50 is, setting by setting: under setting [2], 31.6 µM [rising, single point]; under setting [1], 35.5 µM [rising, single point].

Turning to `CN(/N=C\c1ccc(O)c(O)c1)c1nc(-c2ccccc2)cc(-c2ccccc2)n1`, the AC50 is 22.4 µM [falling, partial curve, poor fit] under setting [2] and 20 µM [falling, partial curve, poor fit] under setting [1].

With `COc1ccc(C(=O)Nc2sc(C)c(C)c2CN2CCOCC2)cc1`, the AC50 under setting [2] is 14.1 µM [rising, single point] and the AC50 under setting [1] is 15.8 µM [rising, partial curve].

With `COc1ccc(N2CCN(c3cc(C)c4ccccc4n3)CC2)cc1`, the AC50 under setting [2] is 11.2 µM [falling, partial curve, poor fit].

With `Cc1ccc2[nH]c(CSc3nnc(NC(=O)COc4ccccc4F)s3)cc(=O)c2c1`, the AC50 under setting [2] was 14.1 µM [falling, partial curve, poor fit].

As for `COc1ccc(Sc2nnc(Cc3ccccc3)c3ccccc23)cc1`, under setting [1], the AC50 was 31.6 µM [falling, single point].

In the case of `Cc1c(C(=O)OCCOc2ccccc2)[nH]c2c1C(=O)CCC2`, the AC50 runs as follows: under setting [2], 17.8 µM [rising, partial curve]; under setting [1], 15.8 µM [rising, single point].

On to `Cc1ccc(S(=O)(=O)NNC(=O)c2cccc(O)c2)cc1`, for which the AC50 under setting [2] is 5.62 µM [falling, full curve, poor fit].

For the compound `CC(=O)N1CCN(CCN=CC2=C(O)CC(c3ccc(Cl)cc3)CC2=O)CC1` (configuration not stated), the AC50 under setting [1] was 0.00447 µM [rising, full curve, poor fit].

In the case of `Cc1ccccc1NC(=O)C1C2CCC(O2)C1C(=O)O` (configuration not stated), the concentration at half-maximal activity (AC50) reads like this: under setting [2], 35.5 µM [rising, single point]; under setting [1], 35.5 µM [rising, single point].

Consider `C=CCn1cc(C(=O)OC)c(=O)c2cc(S(=O)(=O)N3CCC(C)CC3)ccc21`, for which the AC50 by setting is: under setting [2], 7.94 µM [rising, single point]; under setting [1], 22.4 µM [rising, single point].

Regarding `O=C(Nc1cccc(S(=O)(=O)N2CCCC2)c1)c1ccc2c(=O)n3c(nc2c1)CCCCC3`, the AC50 runs as follows: under setting [2], 1 µM [rising, full curve]; under setting [1], 2.51 µM [rising, full curve].

`COc1ccc(-n2cc(CNCCCn3ccnc3)c(-c3ccccc3Cl)n2)cc1`: the AC50 under setting [2] was 1.41 µM [falling, full curve, poor fit].

Take `COc1ccc(N2CCN(C(=S)Nc3ccc(C)cc3)CC2)cc1`: the AC50 under setting [1] is 22.4 µM [falling, single point].

For `COc1cccc(-c2nc(SCc3cc(=O)c4cc(Cl)ccc4[nH]3)n[nH]2)c1`, the AC50 by setting is: under setting [2], 0.631 µM [rising, full curve, poor fit]; under setting [1], 35.5 µM [rising, partial curve, poor fit].

As to `O=C(NCCc1ccc(Cl)cc1)c1ccc2nc(Cc3ccccc3)oc2c1`, under setting [1], the AC50 is 10 µM [rising, partial curve, poor fit].

Regarding `CC1(C)NC(=O)N(CCCCOc2ccc3c(c2)CCC3)C1=O`, the AC50 under setting [2] was 35.5 µM [rising, single point] and the AC50 under setting [1] is 35.5 µM [rising, single point].

As to `COc1ccc(C(=O)/C(=C/c2cccs2)c2nc3ccccc3o2)cc1`, the AC50 under setting [1] is 22.4 µM [rising, single point].

On to `CCc1ccc(CN(Cc2ccco2)C(=O)c2cc(-c3ccc(Cl)cc3)on2)cc1`, for which the AC50 under setting [2] is 0.794 µM [rising, full curve, poor fit].

As to `COc1ccc(NC2=C(C)C(=O)CC2)cc1`, the half-maximal activity concentration (AC50) under setting [1] was 31.6 µM [rising, single point].

For `O=C(Nc1ccncc1)C1(c2ccccc2)CCCC1`, the AC50 was 12.6 µM [rising, single point] under setting [2] and 20 µM [rising, single point] under setting [1].

As to `CCOc1ncccc1C(=O)OCC(=O)Nc1cc(S(=O)(=O)N2CCOCC2)ccc1C`, the AC50 under setting [2] is 1 µM [rising, partial curve, poor fit].

In the case of `Cc1ccc(Cl)cc1NC(=O)NC1COc2ccccc2C1` (configuration not stated), the AC50 under setting [2] is 6.31 µM [falling, single point] and the AC50 under setting [1] was 4.47 µM [falling, full curve, poor fit].

As to `O=C(Nc1nnc(CSCc2ccc(F)cc2)s1)c1ccc([N+](=O)[O-])cc1`, the AC50 under setting [2] is 3.98 µM [rising, full curve, poor fit] and the AC50 under setting [1] is 3.55 µM [rising, partial curve].

Regarding `COc1ccc2nc(SCC(=O)N(C)C3CCCCC3)c(C#N)cc2c1`, the AC50 under setting [1] was 11.2 µM [rising, single point].

Regarding `CCOC(=O)C1=C(C)Nc2sc(C(=O)c3ccc(F)cc3)c(N)c2C1c1ccc(C(=O)OC)cc1` (configuration not stated), the AC50 under setting [2] was 12.6 µM [rising, partial curve, poor fit] and the AC50 under setting [1] is 12.6 µM [rising, partial curve, poor fit].

Take `Fc1cccc(F)c1/C=N/NC(=S)Nc1cccnc1`: the AC50 under setting [2] was 0.316 µM [rising, partial curve, poor fit] and the AC50 under setting [1] is 15.8 µM [rising, partial curve].

Regarding `Cc1cc(=O)[nH]c2nnc(SCc3cccc(C(F)(F)F)c3)n12`, the AC50 under setting [2] is 0.0126 µM [rising, full curve, poor fit].

As for `CC1(C)CC(=O)C(N=Nc2ccc(S(=O)(=O)N3CCCCCC3)cc2)=C(O)C1`, the AC50 under setting [2] was 5.62 µM [falling, single point] and the AC50 under setting [1] was 0.891 µM [falling, partial curve, poor fit].

Turning to `CC(C)c1ccc(NC(=O)Cn2nnc(C(=O)NCCc3ccccc3)c2N)cc1`, the AC50 by setting is: under setting [2], 0.316 µM [falling, full curve, poor fit]; under setting [1], 0.316 µM [falling, full curve, poor fit].

On to `N#C/C(=C(/O)c1ccc(F)cc1)c1nc2ccccc2s1`, for which, under setting [1], the AC50 is 15.8 µM [rising, single point].

As for `NC(=O)CCS(=O)(=O)c1ccc(Cl)cc1`, under setting [2], the AC50 was 0.0631 µM [rising, partial curve, poor fit].

As to `COc1ccc(OC(=O)c2cc(-c3ccc4c(c3)OCCO4)on2)cc1`, under setting [1], the AC50 is 7.08 µM [rising, full curve, poor fit].

In the case of `COc1ccc(-c2nn(-c3ccccc3)cc2C(=O)Nc2nccs2)cc1`, the AC50 by setting is: under setting [2], 4.47 µM [rising, partial curve, poor fit]; under setting [1], 14.1 µM [rising, single point].

`Oc1ccccc1OCCOc1ccccc1OCCOc1ccccc1O`: the AC50 under setting [2] was 35.5 µM [falling, single point].

Turning to `COc1ccc2c(c1)c(C(=O)N/N=C/c1ccc(O)c(O)c1)c(C)n2C`, the AC50 under setting [1] was 22.4 µM [rising, single point].

In the case of `CCCCc1c(C)nc2ccc(Br)cc2c1SCCC#N`, under setting [1], the AC50 is 12.6 µM [rising, partial curve].

`CCOC(=O)c1c(C)[nH]c(C(=O)COC(=O)CNC(=O)c2ccc(Br)cc2)c1C`: the AC50 under setting [2] was 3.16 µM [falling, full curve, poor fit].

As for `CC(C)(C)c1cc(C(c2cccnc2)N2CCN(CCO)CC2)cc(C(C)(C)C)c1O` (configuration not stated), under setting [1], the AC50 is 10 µM [falling, partial curve].

In the case of `CC(=O)C1=NN(c2ccccc2)C(c2ccc3c(c2)OCO3)N1c1ccccc1` (configuration not stated), the AC50 under setting [2] was 35.5 µM [rising, single point] and the AC50 under setting [1] was 35.5 µM [rising, single point].

For `Cc1ccc2c(C)nc(NC3=NCN(CCc4ccccc4)CN3)nc2c1`, the AC50 under setting [1] was 3.16 µM [rising, partial curve, poor fit].

In the case of `Cc1cccc(/C=C2\Oc3cc(OS(C)(=O)=O)ccc3C2=O)c1`, the AC50 under setting [2] was 12.6 µM [rising, single point] and the AC50 under setting [1] is 5.62 µM [rising, partial curve, poor fit].

As to `Cc1c(N(C)CS(=O)(=O)O)c(=O)n(-c2ccccc2)n1C`, the AC50 under setting [2] is 0.0355 µM [rising, full curve, poor fit].

`COc1ccc(C(=O)NCC(=O)OCc2cc(=O)n3nc(C4CCCCC4)sc3n2)cc1`: the AC50 under setting [2] is 4.47 µM [falling, partial curve, poor fit].

As for `Nc1ccc2nc(SCc3cccc(F)c3)sc2c1`, the AC50 under setting [2] was 1.12 µM [rising, partial curve].

For `Cc1ccc(N2C(=O)c3cccc4c(N5CCN(C)CC5)ccc(c34)C2=O)c2cccnc12`, under setting [1], the AC50 is 20 µM [rising, single point].

As for `CCOC(=O)c1c(/N=C/c2cccc([N+](=O)[O-])c2O)sc(C)c1C`, the AC50 under setting [1] was 17.8 µM [rising, single point].

Turning to `CC(C)OC(=O)CSc1nc(N)c(C#N)cc1C#N`, the AC50 runs as follows: under setting [2], 0.141 µM [falling, partial curve, poor fit]; under setting [1], 25.1 µM [falling, partial curve, poor fit].

Take `COC(=O)C(NNc1ccccc1C)(NC(=O)c1ccc(F)cc1)C(F)(F)F` (configuration not stated): the AC50 is 35.5 µM [rising, single point] under setting [2] and 25.1 µM [rising, single point] under setting [1].

Consider `CSCc1cc(N2CCOCC2)nc(-c2ccccc2)n1`, for which the AC50 is, setting by setting: under setting [2], 0.00447 µM [falling, full curve, poor fit]; under setting [1], 0.00355 µM [falling, full curve, poor fit].

For the origin of these results see PubChem BioAssay AID1487 (National Center for Advancing Translational Sciences (NCATS), 2009).
